US8785649B2, “Ethynylphenylamidine compound or salt thereof, method for producing same, and fungicide for agricultural and horticultural use” (priority 2010, dated 2014)
Some results were stated once for a whole list of compounds, not compound by compound.

How the values were obtained:
[1] = test system: wheat powdery mildew (Erysiphe graminis); assay: Test of preventive effect on wheat powdery mildew; settings: 500 ppm test solution sprayed on wheat seedlings; seven days after inoculation
[2] = test system: gray mold (Botrytis cinerea); assay: Test of preventive effect on cucumber gray mold; format: in vivo; settings: 500 ppm test solution sprayed on cucumber seedlings; cut cotyledon; necrotic lesion diameter four days after inoculation
[3] = test system: powdery mildew (Sphaerotheca cucurbitae); assay: Test of preventive effect on cucumber powdery mildew; format: in vivo; settings: 500 ppm test solution sprayed on cucumber seedlings; about ten days after inoculation

| Structure (SMILES) | Preventive value [1] [%] | Preventive value [2] [%] | Preventive value [3] [%] |
| --- | --- | --- | --- |
| CCN(C)C=Nc1cc(C)c(C#Cc2ccc(C)cc2)cc1C [Compound 114] | ≥ 50 | ≥ 50 | ≥ 50 |
| CCN(C)C=Nc1cc(Cl)c(C#C[Si](CC)(CC)CC)cc1Cl [Compound 150] | ≥ 50 | – | ≥ 50 |
| CCCCc1ccc(C#Cc2cc(C)c(N=CN(C)CC)cc2C)cc1 [Compound 116] | ≥ 50 | – | ≥ 50 |
| CCN(C)C=Nc1cc(C)c(C#CCOC)cc1C [Compound 105] | ≥ 50 | – | ≥ 50 |
| Cc1cc(N=CN(C)C)c(C)cc1C#Cc1cccc(C(F)(F)F)c1 [Compound 57] | ≥ 50 | – | ≥ 50 |
| CCN(C)C=Nc1cc(C)c(C#Cc2ccccc2Cl)cc1C [Compound 111] | ≥ 50 | – | ≥ 50 |
| Cc1cc(N=CN(C)C)c(C)cc1C#CCOc1ccccc1 [Compound 54] | ≥ 50 | – | ≥ 50 |
| CCCCCCCCCCCCC#Cc1cc(C)c(N=CN(C)CC)cc1C [Compound 102] | ≥ 50 | – | ≥ 50 |
| CCN(C)C=Nc1cc(C)c(C#CC2CCCCC2)cc1C [Compound 99] | ≥ 50 | – | ≥ 50 |
| Cc1cc(C#Cc2cccc(Cl)c2)ccc1N=CN(C)C [Compound 37] | ≥ 50 | – | ≥ 50 |
| CCCCCCN(C)C=Nc1ccc(C#Cc2ccccc2)cc1C [Compound 136] | ≥ 50 | – | ≥ 50 |
| CCN(C)C=Nc1cc(C)c(C#Cc2cccc(C(F)(F)F)c2)cc1C [Compound 119] | ≥ 50 | – | ≥ 50 |
| CCN(C)C=Nc1cc(C)c(C#C[Si](C)(C)C)cc1Cl [Compound 86] | ≥ 50 | – | ≥ 50 |
| CCN(C)C=Nc1ccc(C#Cc2ccccc2)cc1F [Compound 61] | ≥ 50 | – | ≥ 50 |
| CCN(C)C=Nc1cc(C)c(C#CCN2C(=O)c3ccccc3C2=O)cc1C [Compound 108] | – | ≥ 50 | ≥ 50 |
| Cc1cc(C#Cc2ccc(F)cc2)ccc1N=CN(C)C [Compound 38] | ≥ 50 | – | ≥ 50 |
| CCN(C)C=Nc1ccc(C#Cc2ccccc2)cc1C [Compound 67] | ≥ 50 | – | ≥ 50 |
| Cc1cc(N=CN(C)C)c(C)cc1C#Cc1ccc(C(C)(C)C)cc1 [Compound 56] | ≥ 50 | – | ≥ 50 |

| Structure (SMILES) | Preventive value [1] [%] | Preventive value [2] [%] | Preventive value [3] [%] |
| --- | --- | --- | --- |
| Cc1cc(C#Cc2ccccc2C(F)(F)F)ccc1N=CN(C)C [Compound 45] | ≥ 50 | – | ≥ 50 |
| CCCCN(C)C=Nc1cc(C)c(C#C[Si](C)(C)C)cc1C [Compound 134] | ≥ 50 | – | ≥ 50 |
| CCCN(C=Nc1ccc(C#Cc2ccccc2)cc1C)CC [Compound 142] | ≥ 50 | – | ≥ 50 |
| CCN(C)C=Nc1cc(C)c(C#CC[Si](C)(C)C)cc1Cl [Compound 88] | ≥ 50 | – | ≥ 50 |
| CCN(C)C=Nc1cc(C)c(C#Cc2cccc(Cl)c2)cc1C [Compound 112] | ≥ 50 | ≥ 50 | ≥ 50 |
| Cc1cc(N=CN(C)C)c(C)cc1C#CC(C)(C)C [Compound 52, N,N-dimethyl-N′-[2,5-dimethyl-4-(3,3-dimethyl-1-butynyl)phenyl]formamidine] | ≥ 50 | – | ≥ 50 |
| COc1ccccc1C#Cc1ccc(N=CN(C)C)c(C)c1 [Compound 42] | ≥ 50 | – | ≥ 50 |
| CCNC=Nc1ccc(C#Cc2ccccc2)cc1C [Compound 2] | ≥ 50 | ≥ 50 | ≥ 50 |
| Cc1cc(N=CN(C)C(C)C)c(C)cc1C#C[Si](C)(C)C [Compound 132] | ≥ 50 | – | ≥ 50 |
| CCNC=Nc1cc(C)c(C#C[Si](C)(C)C)cc1C [Compound 4] | ≥ 50 | – | ≥ 50 |
| CCN(C)C=Nc1cc(Cl)c(C#C[Si](C)(C)C)cc1Cl [Compound 83] | ≥ 50 | – | ≥ 50 |
| Cc1cc(N=CN2CCCC2)c(C)cc1C#C[Si](C)(C)C [Compound 153] | ≥ 50 | – | ≥ 50 |
| CCN(C)C=Nc1cc(F)c(C#C[Si](C)(C)C)cc1C [Compound 158] | ≥ 50 | – | ≥ 50 |
| CCN(C=Nc1cc(C)c(C#C[Si](C)(C)C)cc1C)CC [Compound 141] | ≥ 50 | – | ≥ 50 |
| COc1ccc(C#Cc2ccc(N=CN(C)C)c(C)c2)c(C)c1 [Compound 47] | ≥ 50 | – | ≥ 50 |
| CCN(C)C=Nc1cc(Cl)c(C#C[Si](C)(C)C)cc1C [Compound 93] | ≥ 50 | – | ≥ 50 |
| CCN(C)C=Nc1ccc(C#CC[Si](C)(C)C)cc1C [Compound 70] | ≥ 50 | – | ≥ 50 |
| CCCCCCN(C=Nc1ccc(C#Cc2ccccc2)cc1C)CC [Compound 144] | ≥ 50 | – | ≥ 50 |
